The text below walks through data of the supplement of paper PMC4604168 (melanoma cell lines).

Some of the results follow. Repeats are few or missing, and single values can be far off.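 The apoptosis fraction was the count of cleaved-PARP antibody-stained nuclei relative to all DNA-stained nuclei, imaged in 1,536-well plates. Screening doses were set so most cells survived, and baseline and induced cleaved-PARP levels vary greatly across cell lines.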

The experiment concerns RVH-421. Nature of the experiment: cleaved PARP positive nuclei fraction relative to DMSO control; melanoma cells; higher = more apoptosis. The settings on record: library dose: low library concentration; 72 h.
Consider `O=C(O)c1ccc(-c2c[nH]c3ncc(-c4ccccc4)cc23)cc1C1CCCC1` + O=C(Oc1ccc([N+](=O)[O-])cc1)N1CCC(C(O)(c2ccc3c(c2)OCO3)c2ccc3c(c2)OCO3)CC1 [JZL184] (first compound 0.16 µM, partner dose 1 µM), for which the “cleaved PARP positive nuclei fraction” value stood at 94.1%. For `C[C@@H]1CCN(C(=O)CC#N)C[C@@H]1N(C)c1ncnc2[nH]ccc12` + Cc1cc(SCc2sc(-c3ccc(C(F)(F)F)c(F)c3)nc2C)ccc1OCC(=O)O [GW0742] (first compound 1 µM, partner dose 2 µM), the “cleaved PARP positive nuclei fraction” value stood at 56.2%.

Consider `O=C(Nc1cccc(Cl)c1)Nc1ncc(CCNc2ncnc3ccsc23)s1` + Cc1cc(SCc2sc(-c3ccc(C(F)(F)F)c(F)c3)nc2C)ccc1OCC(=O)O [GW0742] (first compound 0.0008 µM, partner dose 2 µM), for which the “cleaved PARP positive nuclei fraction” value came to 150%. Consider `C[C@]12O[C@H](C[C@]1(O)CO)n1c3ccccc3c3c4c(c5c6ccccc6n2c5c31)CNC4=O` [Lestaurtinib] + COc1cc2ncnc(Nc3ccc(Oc4ccccc4)cc3)c2cc1OC [SrcI1] (first compound 0.004 µM, partner dose 2 µM), for which the “cleaved PARP positive nuclei fraction” value was 47.4%. As to `C[As](C)SC[C@H](NC(=O)CC[C@H](N)C(=O)O)C(=O)NCC(=O)O` [Darinaparsin] + COc1ccc(COc2ccc(Cc3cnc(N)nc3N)cc2OC)cc1 [GW2580] (first compound 0.4 µM, partner dose 1 µM), the “cleaved PARP positive nuclei fraction” value worked out at 61.6%. Next, `C[C@]12O[C@H](C[C@]1(O)CO)n1c3ccccc3c3c4c(c5c6ccccc6n2c5c31)CNC4=O` [Lestaurtinib] + COc1ccc(-c2ccc3c(N4CCOCC4)nc(N4C[C@@H](C)O[C@@H](C)C4)nc3n2)cc1CO [KU0063794] (first compound 0.004 µM, partner dose 0.02 µM): 102%.
